Assay results published in paper PMC8648123, “An atypical EhGEF regulates phagocytosis in Entamoeba histolytica through EhRho1” (PLoS Pathogens, 2021).

What was measured:
Experiment in all cases: pull-down; GST-tagged EhRho1 forms incubated with total lysate of trophozoites expressing HA-tag EhGEF; Glutathione-Sepharose; EhGEF detected with HA tag-specific antibody in western blot; only the target purified
[1] = target: GST-EhRho1-Q63L (constitutively active form of EhRho1) (Entamoeba histolytica)
[2] = target: GST-EhRho1-T34N (dominant negative form of EhRho1) (Entamoeba histolytica)
[3] = target: GST-tagged EhRho1 (wild type) (Entamoeba histolytica)

B1: HA-tagged EhGEF (full length wild type) (protein, UniProt C4LYE4 1-482)
chain: MSEELKISVESLRPALFEGWGKKQGGSVKTWKKRWFVLKDNRLWYFASKTAEEAKGFIELPPGTETKDVSQNKKFMFSINSRNTKGSRVFYIVTENSVDHATFFDAVRKVLNKSSPSSVPAAQSTTPVNVPKAENQFTLQGNNSSTGLSTSTQPVTSTIPPMADAVNIPNSLQPKCDGRKNINKIKAKISWLQVEGENVVEFWKYWMDSTPQSDALEVGQSIQFMLVVSGNTEKLSWRVFGPQGALIQNMVDFFWNVGAPDEEIDHLNNLGCQINPSEIGSWIDMSVMNGMDGGWFFKGDLVCDVIRDTADKCEYAERLITWAKEHGLNYLCQMGRDMGATPPRQSEFRFKLDGVISSRMEKVHSAFTTFGFPPIPVNIVEILTNLPPVYTYFYLCVIVSSEGFVKISILVPAPKQDVVDAFLFAMSDVKDTHIALHKDITNTLGNTPLFVEYCYLNPGYGYEVYKEGADVLVHYNLGSESR
With B1 the binding [1] was “no binding”, the binding [2] was “no binding” and the binding [3] was “binds”.

These are yes or no findings as the source states them, for the method shown. In cells and extracts the contact can be indirect. For part of these data: A result given as binding can be weak or reduced; the word gives no strength. Where a sequence is shown, tags or fusion partners need not be part of it.
